Measurements: article PMC7159923
These are yes or no findings as the source states them, for the method shown. Binding seen in cells or lysates may run through a third protein. A result given as binding can be weak or reduced; the word gives no strength.

Sequences of proteins named here, by UniProt entry; tags and fusion partners are left off. A change or cut given only in a name is not applied to a line headed by its entry. A line that says so, or that is headed by a name, gives the form on record, which may keep a tag or linker.
mCherry-IQSec1 (Q6DN90, form named): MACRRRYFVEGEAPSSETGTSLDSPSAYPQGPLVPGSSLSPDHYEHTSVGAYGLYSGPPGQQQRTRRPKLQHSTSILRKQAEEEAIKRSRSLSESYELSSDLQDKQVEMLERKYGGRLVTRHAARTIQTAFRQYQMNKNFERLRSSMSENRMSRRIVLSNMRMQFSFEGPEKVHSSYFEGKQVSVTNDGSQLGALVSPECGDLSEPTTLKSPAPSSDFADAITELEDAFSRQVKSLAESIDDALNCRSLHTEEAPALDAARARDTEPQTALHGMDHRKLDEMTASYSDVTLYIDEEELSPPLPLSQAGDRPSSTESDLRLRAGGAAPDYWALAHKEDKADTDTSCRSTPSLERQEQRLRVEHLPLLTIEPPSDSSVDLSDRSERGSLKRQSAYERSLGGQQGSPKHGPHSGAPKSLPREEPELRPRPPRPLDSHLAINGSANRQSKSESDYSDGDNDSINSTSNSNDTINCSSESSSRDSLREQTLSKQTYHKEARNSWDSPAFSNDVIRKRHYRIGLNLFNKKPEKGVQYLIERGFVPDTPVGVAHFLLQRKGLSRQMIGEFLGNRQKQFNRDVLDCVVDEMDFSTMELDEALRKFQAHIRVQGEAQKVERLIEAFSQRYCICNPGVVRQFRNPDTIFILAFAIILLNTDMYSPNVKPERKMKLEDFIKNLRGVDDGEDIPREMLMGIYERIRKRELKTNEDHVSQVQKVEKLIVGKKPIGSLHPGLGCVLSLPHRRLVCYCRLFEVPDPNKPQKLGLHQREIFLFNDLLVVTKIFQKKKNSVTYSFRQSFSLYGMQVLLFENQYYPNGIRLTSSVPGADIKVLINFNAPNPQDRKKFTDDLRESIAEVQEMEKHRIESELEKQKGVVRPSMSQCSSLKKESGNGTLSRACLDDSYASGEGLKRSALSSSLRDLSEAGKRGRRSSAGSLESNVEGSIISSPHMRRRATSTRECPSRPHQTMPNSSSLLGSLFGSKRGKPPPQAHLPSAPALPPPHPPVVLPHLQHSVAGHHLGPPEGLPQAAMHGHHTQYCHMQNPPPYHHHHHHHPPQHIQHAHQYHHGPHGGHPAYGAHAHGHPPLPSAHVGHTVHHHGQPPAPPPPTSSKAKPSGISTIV
UniProt Q9H4L5: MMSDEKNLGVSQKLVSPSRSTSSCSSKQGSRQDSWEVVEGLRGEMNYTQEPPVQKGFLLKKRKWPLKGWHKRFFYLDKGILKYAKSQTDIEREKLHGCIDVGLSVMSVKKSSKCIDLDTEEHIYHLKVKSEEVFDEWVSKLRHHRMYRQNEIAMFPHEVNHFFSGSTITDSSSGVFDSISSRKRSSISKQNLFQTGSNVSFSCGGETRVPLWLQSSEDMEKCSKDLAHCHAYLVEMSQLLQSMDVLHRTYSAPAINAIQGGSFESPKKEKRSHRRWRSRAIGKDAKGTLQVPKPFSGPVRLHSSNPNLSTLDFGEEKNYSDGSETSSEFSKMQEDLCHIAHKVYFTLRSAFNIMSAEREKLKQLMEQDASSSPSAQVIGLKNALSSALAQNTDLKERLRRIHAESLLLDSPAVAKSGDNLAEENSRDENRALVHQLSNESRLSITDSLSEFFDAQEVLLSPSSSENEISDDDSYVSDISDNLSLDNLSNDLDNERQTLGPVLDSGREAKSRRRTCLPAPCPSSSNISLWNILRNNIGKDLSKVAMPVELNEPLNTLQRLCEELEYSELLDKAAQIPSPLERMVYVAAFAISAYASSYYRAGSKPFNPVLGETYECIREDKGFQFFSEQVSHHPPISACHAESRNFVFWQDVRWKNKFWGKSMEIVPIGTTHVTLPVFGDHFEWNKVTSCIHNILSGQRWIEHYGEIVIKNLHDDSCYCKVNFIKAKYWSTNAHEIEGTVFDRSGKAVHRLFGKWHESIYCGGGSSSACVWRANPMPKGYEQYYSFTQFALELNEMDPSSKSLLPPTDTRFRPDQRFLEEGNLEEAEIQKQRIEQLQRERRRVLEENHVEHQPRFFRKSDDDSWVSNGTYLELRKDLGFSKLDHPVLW

Target: mCherry-IQSec1 (human) (UniProt Q6DN90)
Assay: co-IP; lysates of HEK-293 cells co-expressing mCherry-IQSec1 (WT or mutants) and GFP-ORP3 (WT or mutants); immunoprecipitated with anti-mCherry antibody and protein A beads, NP-40 lysis buffer, 4°C; probed for GFP

binding: binds
Substance: GFP-ORP3Δ^FFAT (from UniProt Q9H4L5)
